Binding data for one substance are collected here from patent US20030181369A1 (published 2003).

Chains of the proteins cited; added tags and fusions are not shown. Lines headed by an entry give the natural chain unless they say otherwise; changes in a name come on top. Residues count along the entry.
UniProt P53712, residues 21-798: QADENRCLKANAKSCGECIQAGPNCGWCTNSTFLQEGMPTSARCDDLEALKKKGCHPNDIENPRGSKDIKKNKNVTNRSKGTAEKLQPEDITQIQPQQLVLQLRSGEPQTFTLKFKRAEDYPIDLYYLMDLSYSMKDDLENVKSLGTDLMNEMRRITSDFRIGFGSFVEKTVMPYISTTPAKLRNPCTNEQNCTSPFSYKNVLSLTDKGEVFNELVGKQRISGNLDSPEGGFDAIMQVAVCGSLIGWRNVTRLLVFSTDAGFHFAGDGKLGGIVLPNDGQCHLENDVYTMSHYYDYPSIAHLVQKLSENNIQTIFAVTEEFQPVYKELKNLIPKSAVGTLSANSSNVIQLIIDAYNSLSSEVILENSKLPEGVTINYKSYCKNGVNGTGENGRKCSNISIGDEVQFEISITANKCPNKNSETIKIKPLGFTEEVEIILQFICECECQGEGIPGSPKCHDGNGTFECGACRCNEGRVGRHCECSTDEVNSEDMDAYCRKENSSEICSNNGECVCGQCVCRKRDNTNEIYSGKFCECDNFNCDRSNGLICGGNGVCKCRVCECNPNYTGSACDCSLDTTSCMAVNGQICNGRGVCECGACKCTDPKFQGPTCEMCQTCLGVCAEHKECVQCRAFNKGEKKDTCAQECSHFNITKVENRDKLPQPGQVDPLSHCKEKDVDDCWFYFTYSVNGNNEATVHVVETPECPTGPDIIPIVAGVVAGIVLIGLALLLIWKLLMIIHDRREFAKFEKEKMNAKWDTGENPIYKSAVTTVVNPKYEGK
UniProt P27449: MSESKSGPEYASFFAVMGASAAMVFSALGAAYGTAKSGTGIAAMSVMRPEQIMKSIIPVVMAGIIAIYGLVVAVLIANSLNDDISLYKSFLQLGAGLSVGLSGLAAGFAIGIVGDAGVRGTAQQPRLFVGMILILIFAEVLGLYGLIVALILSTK

The target of the test is T1, T7-epitope tagged bovine β1 integrin (bovine, UniProt P53712 21-798).
T1 construct: mature; Expressed in HEK293 cells and detected in lysates with anti-T7 antibody; also called T7-β1 integrin; T7 tagged β1; not shown: le
The experiment in a line: co-immunoprecipitation with anti-HSV antibody from HEK293 lysates, anti-T7 Western blot.

Results are given in words; binding and its absence hold for the method and conditions named. In cells and extracts the contact can be indirect. Some entries that bind do so weakly or less than the wild type.

Consider “HSV-tagged 16K (16-kDa subunit of vacuolar H+-ATPase, full length) (from UniProt P27449 1-155)”, for which the binding result is listed as “binds”.
